# Screening data

Source: PubChem BioAssay AID1053133 (Broad Institute, 2014).

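Vaccinia-infected cells with a two-color viral stage reporter; Venus fluorescence read on a plate reader; the cell line is not named here; timing not stated here.
The test concentration is not given here.
Percent change in Venus reporter signal; lower (more negative) values mean stronger inhibition of that viral stage.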

Values are in %.
The controls that fix the scale are not given here.
Common to all entries: measured here: Venus reporter, other viral stage.
This is a side read-out of the assay, for part of the compounds, not drawn at random.

{"smiles": "C[C@H]1CN([C@@H](C)CO)C(=O)c2ccccc2-c2ccccc2CO[C@@H]1CN(C)Cc1ccccc1C(F)(F)F", "activity change (Venus) (%)": "-65.71"}
{"smiles": "COc1ccc(S(=O)(=O)N(C)C[C@H]2OCCCC[C@H](C)Oc3ccc(NS(=O)(=O)c4cccs4)cc3C(=O)N([C@@H](C)CO)C[C@@H]2C)cc1", "activity change (Venus) (%)": "-42.43"}
{"smiles": "C[C@@H]1CN([C@H](C)CO)S(=O)(=O)c2ccc(C#Cc3ccccc3F)cc2O[C@@H]1CN(C)CC1CCOCC1", "activity change (Venus) (%)": "-35.64"}
{"smiles": "C[C@@H]1CN([C@@H](C)CO)C(=O)c2cc(NS(=O)(=O)c3ccc(Cl)cc3)ccc2O[C@@H](C)CCCCO[C@H]1CN(C)Cc1ccccc1", "activity change (Venus) (%)": "-67.25"}
{"smiles": "CCS(=O)(=O)N1[C@H](C#N)[C@H](c2ccc(-c3cccc(F)c3)cc2)[C@@H]1CO", "activity change (Venus) (%)": "-28.52"}
{"smiles": "Cc1ccc(-c2ccc3c(c2)O[C@@H](CN(C)Cc2ccccn2)[C@H](C)CN([C@@H](C)CO)S3(=O)=O)cc1", "activity change (Venus) (%)": "-36.33"}
{"smiles": "C[C@H](CO)N1C[C@H](C)[C@H](CN(C)Cc2ccc(Cl)c(Cl)c2)Oc2c(NC(=O)Nc3ccc(C(F)(F)F)cc3)cccc2C1=O", "activity change (Venus) (%)": "-35.08"}
{"smiles": "C[C@H](CO)N1C[C@H](C)[C@H](CN(C)S(=O)(=O)c2ccc(F)cc2)Oc2cc(C3=CCCCC3)ccc2S1(=O)=O", "activity change (Venus) (%)": "-34.63"}
{"smiles": "COc1ccc(S(=O)(=O)N(C)C[C@@H]2Oc3c(NC(=O)Nc4cccc5ccccc45)cccc3C(=O)N([C@H](C)CO)C[C@@H]2C)cc1", "activity change (Venus) (%)": "-30.29"}
{"smiles": "N#Cc1ccc(-c2ccc3c(c2)[C@@H]2[C@@H](CCN2S(=O)(=O)c2cccc(F)c2)[C@@H](CO)N3)cc1", "activity change (Venus) (%)": "-30.13"}
{"smiles": "C[C@H]1CCCCO[C@@H](CN(C)C(=O)Cc2ccccc2)[C@@H](C)CN([C@@H](C)CO)C(=O)c2cc(NS(=O)(=O)c3ccccc3)ccc2O1", "activity change (Venus) (%)": "-39.27"}
{"smiles": "COc1ccc(S(=O)(=O)Nc2ccc3c(c2)C(=O)N([C@H](C)CO)C[C@H](C)[C@H](CN(C)Cc2ccc(Oc4ccccc4)cc2)O3)cc1", "activity change (Venus) (%)": "-39.83"}
{"smiles": "COc1ccc(S(=O)(=O)N(C)C[C@@H]2OCCCC[C@@H](C)Oc3ccc(NS(=O)(=O)c4c(C)noc4C)cc3C(=O)N([C@@H](C)CO)C[C@H]2C)cc1", "activity change (Venus) (%)": "-36.41"}
{"smiles": "CN1C(=O)c2cc(NC(=O)c3cccc(F)c3)ccc2OC[C@H]2O[C@H](CC(=O)NCC3CCCCC3)CC[C@H]21", "activity change (Venus) (%)": "-24.23"}
{"smiles": "C[C@H]1CN([C@@H](C)CO)C(=O)c2cc(NC(=O)Nc3ccc(F)cc3)ccc2O[C@H]1CN(C)Cc1ccc(C(F)(F)F)cc1", "activity change (Venus) (%)": "-43.66"}
{"smiles": "C[C@H]1CN([C@@H](C)CO)C(=O)c2cccc(NC(=O)Nc3ccc(F)cc3)c2O[C@H]1CN(C)C(=O)Nc1ccc2c(c1)OCO2", "activity change (Venus) (%)": "-22.54"}
{"smiles": "C[C@@H]1CN([C@@H](C)CO)C(=O)Cc2cc(NC(=O)CCCCCC(=O)Nc3ccccc3N)ccc2O[C@@H]1CN(C)Cc1ccc(-c2ccccc2)cc1", "activity change (Venus) (%)": "-25.35"}
{"smiles": "CO[C@H]1O[C@H](CO)[C@@H](OC(=O)Nc2cccc(F)c2)[C@H](OC(=O)Nc2ccc3c(c2)OCO3)[C@H]1OC(=O)Nc1ccc2c(c1)OCO2", "activity change (Venus) (%)": "-25.97"}
{"smiles": "Cc1cccc(S(=O)(=O)N(C)C[C@@H]2OCc3ccccc3-c3c(n(C)c4ccccc34)C(=O)N([C@@H](C)CO)C[C@@H]2C)c1", "activity change (Venus) (%)": "-32.08"}
{"smiles": "C[C@@H]1CN([C@H](C)CO)C(=O)c2cc(NC(=O)Nc3ccccc3)ccc2O[C@@H](C)CCCCO[C@H]1CN(C)Cc1ccccc1", "activity change (Venus) (%)": "-64.03"}

Repeated from the top, 2 entries:

{"smiles": "C[C@H]1CN([C@@H](C)CO)C(=O)c2ccccc2-c2ccccc2CO[C@@H]1CN(C)Cc1ccccc1C(F)(F)F", "activity change (Venus) (%)": "-65.71"}
{"smiles": "COc1ccc(S(=O)(=O)N(C)C[C@H]2OCCCC[C@H](C)Oc3ccc(NS(=O)(=O)c4cccs4)cc3C(=O)N([C@@H](C)CO)C[C@@H]2C)cc1", "activity change (Venus) (%)": "-42.43"}